Measurements reported in PubChem BioAssay AID1224826 (NIAID, 2016)

Purpose: 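Genes that change LPS-induced Tnf promoter activity in mouse macrophages when knocked down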 (primary screen)
System: RAW264.7 G9 macrophages from mouse bearing reporters for p65 (GFP) and the Tnf promoter (mCherry)
Knock-down reagent: siRNA pool against mouse genes, 100 nM
Duration: 16 h of LPS stimulation, after 2 days of siRNA transfection
Conditions: bacterial lipopolysaccharide (Salmonella minnesota R595), 10 ng/ml
Read-out: 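Nuclear mCherry signal of the Tnf promoter reporter measured by imaging after background removal, scaled to each plate median and turned into robust z-scores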
Scale: Tnf reporter robust z-score: higher = stronger Tnf promoter reporter signal after LPS; Tnf reporter intensity: higher = stronger Tnf promoter reporter signal
Active means: 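Called active when robust z-score is at most -1.3, matching the median of the Tlr4 knock-down control, or over 3; control wells and wells with under 50 cells never active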
Meaning of the calls: active = Tnf reporter clearly lowered or raised; inactive = no clear change in Tnf reporter
The whole screen tested about 17,000 reagents; shown is a part drawn at random. Over the whole deposit, about 1,110 (6.6%) are marked active. 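Active means lowered or raised reporter signal; replicate intensities are raw and not normalised per plate.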 A number with no mark means an inactive call. A reagent listed more than once was tested more than once; the source does not tell the runs apart.

no.	gene knocked down	PubChem SID	Tnf reporter robust z-score	fewer than 50 cells in well	Tnf reporter intensity, replicate 1	Tnf reporter intensity, replicate 2
1	Gpr142	SID315478101	-0.34	enough cells in well	180	194
2	Cdkl2	SID315471125	0.02	enough cells in well	197	160
3	Nlrp9b	SID315479714	-2.12 (active)	enough cells in well	68.6	54.5
4	Trim13	SID315472530	1.02	enough cells in well	273	351
5	Or4a70	SID315480584	1.86	enough cells in well	301	191
6	Defb2	SID315466300	1.37	enough cells in well	229	273
7	Gpr50	SID315467000	-0.39	enough cells in well	177	274
8	Myh3	SID315468059	-0.97	enough cells in well	183	134
9	Pcdha11	SID315466129	0.94	enough cells in well	211	160
10	Galc	SID315466815	0.37	enough cells in well	300	254
11	Ifi209	SID315479298	1.75	enough cells in well	349	277
12	Zfp940	SID315479045	-0.91	enough cells in well	157	127
13	Dstn	SID315471530	-0.68	enough cells in well	188	149
14	4930544G11Rik	SID315473146		fewer than 50 cells per well; well left out of calls	112	78.2
15	Cxcr4	SID315466011	-0.95	enough cells in well	104	215
16	Adam32	SID315481706	-0.85	enough cells in well	125	114
17	Or12d13	SID315480473	0.01	enough cells in well	291	83.6
18	Sgk2	SID315470550	0.89	enough cells in well	272	193
19	Pde7a	SID315468438	-0.03	enough cells in well	227	189
20	Glrp1	SID315466932	2.71	enough cells in well	430	291
21	Lrrc31	SID315481290	-0.6	enough cells in well	150	90.9
22	Scp2d1	SID315472364	1.96	enough cells in well	366	135
23	Ahsp	SID315477247	2.11	enough cells in well	397	252
24	Galntl6	SID315480909	0.61	enough cells in well	195	151
25	Fcgrt	SID315466645	0.7	enough cells in well	263	308
26	Cct6a	SID315465832	0.28	enough cells in well	248	248
27	Hyal2	SID315467356	-0.14	enough cells in well	229	93.3
28	Hrnr	SID315473613	0.21	enough cells in well	301	30.5
29	Gen1	SID315477589	-0.57	enough cells in well	133	128
30	Ctsk	SID315466197	-1.46 (active)	enough cells in well	112	110
31	Aox3	SID315474295	1.07	enough cells in well	312	105
32	Qtgal	SID315477621	-1.05	enough cells in well	145	65.6
33	Gprc5d	SID315475965	-0.6	enough cells in well	167	245
34	Or5as1	SID315480250	1.04	enough cells in well	236	217
35	Uba1y	SID315469907		fewer than 50 cells per well; well left out of calls	80.2	55.6
36	Tyrobp	SID315469892	-0.79	enough cells in well	138	205
37	Hand1	SID315467140	0.34	enough cells in well	474	214
38	Cdc42se2	SID315474615	0.96	enough cells in well	207	254
39	Cdc42se2	SID315474615	0.64	enough cells in well	357	69.2
40	Tmem177	SID315472375		fewer than 50 cells per well; well left out of calls	184	72
41	Pithd1	SID315472278	1.29	enough cells in well	467	85.8
42	Ssu72	SID315473691	-0.61	enough cells in well	150	56.2
43	Olfr197	SID315480154	-0.54	enough cells in well	152	95.8
44	Hsd3b5	SID315467317	0.71	enough cells in well	246	169
45	Pde9a	SID315468440	-0.33	enough cells in well	221	157
46	Tbc1d8	SID315471263	0.29	enough cells in well	142	91.1
47	Cyp2a4	SID315466223	-0.57	enough cells in well	204	150
48	Ephb2	SID315466528	2.47	enough cells in well	362	287
49	Wdr5	SID315477154	-1.38 (active)	enough cells in well	176	91.2
50	Zfp764	SID315479121	-0.93	enough cells in well	156	94.9
51	Clec18a	SID315481714	0.15	enough cells in well	228	84.3
52	Rpgr	SID315469005	-1.14	enough cells in well	89.5	68
53	Apol11b	SID315481488	0.01	enough cells in well	163	153
54	Epb41l2	SID315466513	1.11	enough cells in well	333	192
55	Slco2b1	SID315476278	-2 (active)	enough cells in well	33.8	31.1
56	Ppp1r37	SID315479026	0.13	enough cells in well	241	187
57	Fancd2	SID315477697	0.38	enough cells in well	311	201
58	Hspb8	SID315475740	-0.69	enough cells in well	113	125

7 entries from above, reduced to “Tnf reporter intensity, replicate 1”:
Defb2 [SID315466300]: 229
Gpr50 [SID315467000]: 177
Myh3 [SID315468059]: 183
Pcdha11 [SID315466129]: 211
Galc [SID315466815]: 300
Ifi209 [SID315479298]: 349
Zfp940 [SID315479045]: 157
